Measurements reported in PubChem BioAssay AID1259254 (NCATS, 2017).
Purpose: 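Genome-wide screen for genes that prevent DNA re-replication in cancer cells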 (primary screen). Cell system: human HCT116 colorectal cancer cells. Knock-down reagent: single siRNA against human genes. Duration: 3 days. Detection: 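Nuclei stained with Hoechst and imaged; cell-cycle phase assigned by DNA content; G2 share scaled per plate, non-targeting siRNA 0%, GMNN siRNA 100%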. Reading the numbers: G2 robust z-score: higher = more G2 cells, more excess DNA replication. Rule for the call: 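Active siRNAs have a G2 robust z of 5 or more median absolute deviations over the median, which in these data means about 38% or higher of GMNN control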.
Shown is one part, drawn at random, of about 59,000 reagents tested. In the full data, about 1,550 (2.6%) were called active. 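G2 share is only a proxy for re-replication; each gene was hit by three separate siRNAs, and active genes were retested.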 Reagents against one gene are numbered here. Not all columns of the deposit are shown. Not given: the amount of reagent.

| G2 robust z-score | outcome | gene | reagent no. |
| --- | --- | --- | --- |
| 3.04 | inactive | PSG3 | 1 |
| 0.42 | inactive | PSG3 | 2 |
| -0.53 | inactive | PSG3 | 3 |
| -0.348 | inactive | CR1L | 1 |
| -1.66 | inactive | CR1L | 2 |
| -1 | inactive | CR1L | 3 |
| 7.95 | active | SLC26A9 | 1 |
| -0.211 | inactive | SLC26A9 | 2 |
| -0.919 | inactive | SLC26A9 | 3 |
| 3.28 | inactive | BRF1 | 1 |
| 0.148 | inactive | BRF1 | 2 |
| -0.801 | inactive | BRF1 | 3 |
| 1.88 | inactive | PSMB8 | 1 |
| 2.42 | inactive | PSMB8 | 2 |
| -0.423 | inactive | PSMB8 | 3 |
| -0.534 | inactive | ENO1 | 1 |
| 0.773 | inactive | ENO1 | 2 |
| 1.83 | inactive | ENO1 | 3 |
| 0.853 | inactive | RALA | 1 |
| -0.032 | inactive | RALA | 2 |
| 1.48 | inactive | RALA | 3 |
| -0.232 | inactive | PCDH18 | 1 |
| 0.0273 | inactive | PCDH18 | 2 |
| 2.49 | inactive | PCDH18 | 3 |
| 0.273 | inactive | ITM2C | 1 |
| 0.527 | inactive | ITM2C | 2 |
| -0.844 | inactive | ITM2C | 3 |
| 0.583 | inactive | MIR3976HG | 1 |
| 13.7 | active | MIR3976HG | 2 |
| 1.54 | inactive | MIR3976HG | 3 |
| 5.9 | active | C1orf21 | 1 |
| 0.534 | inactive | C1orf21 | 2 |
| -0.503 | inactive | C1orf21 | 3 |
| -0.188 | inactive | GJA3 | 1 |
| -0.98 | inactive | GJA3 | 2 |
| 0.238 | inactive | GJA3 | 3 |
| 0.994 | inactive | SFXN5 | 1 |
| -0.198 | inactive | SFXN5 | 2 |
| -0.343 | inactive | SFXN5 | 3 |
| 0.094 | inactive | PPP1R2P4 | 1 |
| -0.285 | inactive | PPP1R2P4 | 2 |
| 0.405 | inactive | PPP1R2P4 | 3 |
| -0.433 | inactive | PRAC1 | 1 |
| 10 | active | PRAC1 | 2 |
| 0.108 | inactive | PRAC1 | 3 |
| 6.14 | active | CHAMP1 | 1 |
| -0.898 | inactive | CHAMP1 | 2 |
| -0.408 | inactive | CHAMP1 | 3 |
| 4.11 | inactive | HEMK2 | 1 |
| 6.92 | active | HEMK2 | 2 |
| -0.194 | inactive | HEMK2 | 3 |
| 1.06 | inactive | SERHL2 | 1 |
| 0.74 | inactive | SERHL2 | 2 |
| -0.582 | inactive | SERHL2 | 3 |
| -0.592 | inactive | WDR38 | 1 |
| -0.2 | inactive | WDR38 | 2 |
| 1.33 | inactive | WDR38 | 3 |
| -0.857 | inactive | OR4K14 | 1 |
| -0.399 | inactive | OR4K14 | 2 |
| 0.844 | inactive | OR4K14 | 3 |
| -0.374 | inactive | IL36RN | 1 |
| -0.45 | inactive | IL36RN | 2 |
| 0.527 | inactive | IL36RN | 3 |
| 0.124 | inactive | UBE4A | 1 |
| 0.952 | inactive | UBE4A | 2 |
| -0.563 | inactive | UBE4A | 3 |
| -1 | inactive | IFT122 | 1 |
| -0.265 | inactive | IFT122 | 2 |
| -0.906 | inactive | IFT122 | 3 |
| -0.527 | inactive | GPRC6A | 1 |
| -0.517 | inactive | GPRC6A | 2 |
| -0.251 | inactive | GPRC6A | 3 |
| -0.58 | inactive | CIITA | 1 |
| 2.72 | inactive | CIITA | 2 |
| -0.623 | inactive | CIITA | 3 |
| -0.46 | inactive | WT1 | 1 |
| -1.3 | inactive | WT1 | 2 |
| -0.5 | inactive | WT1 | 3 |
| 0.1 | inactive | LEF1 | 1 |
| 1.4 | inactive | LEF1 | 2 |
| 0.277 | inactive | LEF1 | 3 |
| -0.904 | inactive | ITGB7 | 1 |
| -1.41 | inactive | ITGB7 | 2 |
| 3.27 | inactive | ITGB7 | 3 |
| -0.34 | inactive | P4HTM | 1 |
| -0.768 | inactive | P4HTM | 2 |
| -0.319 | inactive | P4HTM | 3 |

Reformatted: entries from further up.
{"gene": "OR4K14", "reagent no.": 3, "G2 robust z-score": 0.844, "outcome": "inactive"}
{"gene": "IL36RN", "reagent no.": 1, "G2 robust z-score": -0.374, "outcome": "inactive"}
{"gene": "IL36RN", "reagent no.": 2, "G2 robust z-score": -0.45, "outcome": "inactive"}
{"gene": "IL36RN", "reagent no.": 3, "G2 robust z-score": 0.527, "outcome": "inactive"}
{"gene": "UBE4A", "reagent no.": 1, "G2 robust z-score": 0.124, "outcome": "inactive"}
{"gene": "UBE4A", "reagent no.": 2, "G2 robust z-score": 0.952, "outcome": "inactive"}
{"gene": "UBE4A", "reagent no.": 3, "G2 robust z-score": -0.563, "outcome": "inactive"}
{"gene": "IFT122", "reagent no.": 1, "G2 robust z-score": -1, "outcome": "inactive"}
